Test results as given in the supplement of paper PMC5949888.
Most values lie at the floor of the assay. Slopes are relative: functional sequences can read slightly below zero.

These substances were tested on Saccharomyces cerevisiae PS128 hsf1 delta, HSF1(1-493) fusion (assay: growth estimate (transactivation domain function in HSF1 fusion, heat-shock survival) (a.u. (slope of normalised read count over time)); higher = stronger growth at 37°C, i.e. more transactivation activity). Details: library: random library.
VWCNGGIRGPAESVRPPERR showed a growth estimate of less than -0.25.
VWDFE was tested, and the growth estimate was less than -0.25.
VWDKLQQSAAIDQVLSWTGL showed a growth estimate of less than -0.25.
Substance VWERAKSYACFVNWSSKKLL has a growth estimate of less than -0.25.
VWFPLKWRVGGADRFFMG gave a growth estimate of less than -0.25.
Substance VWGGGYSSHAIPSANTSLIT has a growth estimate of less than -0.25.
Work on VWGRNASKRVDFIGLEAETS yielded a growth estimate of less than -0.25.
VWHDAFKLVSIGRQEP showed a growth estimate of less than -0.25.
VWHTRTQRVSSKYWDCPPVT was tested, and the growth estimate was less than -0.25.
VWIGRMGSG showed a growth estimate of less than -0.25.
In the case of VWNRVQRSQSNANR, the growth estimate was less than -0.25.
In the case of VWPARY, the growth estimate was less than -0.25.
In the case of VWR, the growth estimate was less than -0.25.
VWRDYRASVEASLLIMASSR showed a growth estimate of less than -0.25.
Work on VWRICG yielded a growth estimate of less than -0.25.
VWSVNTLTDACRRYRPVRIA was tested, and the growth estimate was less than -0.25.
Substance VWSYRSFRREGSIGSFRRA has a growth estimate of -0.191.
Substance VWTREEVQRVLEIRSS has a growth estimate of less than -0.25.
For VWVDRPQGNMVVPSP, the growth estimate was less than -0.25.
VWWVTAIFPLGFRECVPLSS showed a growth estimate of less than -0.25.
VWYASECWGQLGRER was tested, and the growth estimate was less than -0.25.
VYAKPPIFR showed a growth estimate of less than -0.25.
With VYFAGSRFAVFTDASPRLIT the growth estimate was less than -0.25.
Substance VYGRTARCGRATRCYHSLSS has a growth estimate of less than -0.25.
Work on VYGVREIDWFSLRIVDAHVY yielded a growth estimate of less than -0.25.
Substance VYILQHRW has a growth estimate of less than -0.25.
Substance VYLVRGLDWVTRGGGRTAGA has a growth estimate of less than -0.25.
For VYMFKVWA, the growth estimate was less than -0.25.
Substance VYPCD has a growth estimate of less than -0.25.
VYQFGKGWR gave a growth estimate of less than -0.25.
For VYQGGA, the growth estimate was less than -0.25.
VYQKRCQKFIGSHQPIERQP showed a growth estimate of less than -0.25.
VYQRAPCGGAR was tested, and the growth estimate was less than -0.25.
In the case of VYSHRTIRVPAE, the growth estimate was less than -0.25.
VYSQ showed a growth estimate of less than -0.25.
Work on VYTGRLLQSVDYVRLRKTSF yielded a growth estimate of less than -0.25.
Substance VYWV has a growth estimate of less than -0.25.
With WAELDG the growth estimate was less than -0.25.
Work on WAGLPFRVRLQKQGVPDVSR yielded a growth estimate of -0.243.
WAGRDQSGLGMIVSGSLRES showed a growth estimate of less than -0.25.
Work on WAICGSVVASAAAPG yielded a growth estimate of less than -0.25.
WAITLVIHCMGLKQR gave a growth estimate of less than -0.25.
In the case of WAKISCWDDVLNSCLQT, the growth estimate was 0.226.
WAKRQTRQTISVRQVGELLR showed a growth estimate of less than -0.25.
In the case of WAL, the growth estimate was less than -0.25.
With WAMQIRYAA the growth estimate was less than -0.25.
In the case of WANLFSQPRRNRDRRLV, the growth estimate was less than -0.25.
Substance WAPVALAKGIHQLGAKATAS has a growth estimate of less than -0.25.
In the case of WAQVAGYSVGRRPVR, the growth estimate was less than -0.25.
WAVHRVQWVGRSNKELFAC was tested, and the growth estimate was less than -0.25.
Work on WAYLFCPL yielded a growth estimate of less than -0.25.
Substance WCCLGFVALHLLG has a growth estimate of less than -0.25.
WCFPTYGTFYSDTPQRVSIL was tested, and the growth estimate was less than -0.25.
WCGVKGYGCCH was tested, and the growth estimate was less than -0.25.
With WCTLRLRFEVSVRTLACQGC the growth estimate was less than -0.25.
Work on WCVHPAWTFSGGNF yielded a growth estimate of less than -0.25.
Substance WDFDLVTIQSLRAPPFCVTL has a growth estimate of less than -0.25.
WDGPPVLNTDHDFLSRSTVP showed a growth estimate of less than -0.25.
Substance WDIVSTFQIFLFAYGPFCPL has a growth estimate of less than -0.25.
For WDKYQAFVRVCPMG, the growth estimate was -0.246.
WDLLSMRGPF showed a growth estimate of less than -0.25.
For WDRPAESASVRCHLIRDLLL, the growth estimate was less than -0.25.
WDSPIGPLIPRIGRC was tested, and the growth estimate was less than -0.25.
With WECDSEQHLRGPNRMSLESP the growth estimate was less than -0.25.
WEE gave a growth estimate of less than -0.25.
For WEGFARYKSDNEGGAEHPFE, the growth estimate was less than -0.25.
WEGTVYYRYWVTRPYLARIM was tested, and the growth estimate was less than -0.25.
With WEHDPAAPVAA the growth estimate was less than -0.25.
WEKGVNIHPTDQSVNG was tested, and the growth estimate was less than -0.25.
Substance WEL has a growth estimate of less than -0.25.
For WELPSPVVTNVGTHPK, the growth estimate was less than -0.25.
WERTRTFRLAYWTVWFRRKL showed a growth estimate of less than -0.25.
WESLCERYYVVH gave a growth estimate of less than -0.25.
WESPSQVS showed a growth estimate of less than -0.25.
With WEVDMVSYARTLLLVSCDRP the growth estimate was less than -0.25.
For WEVLLVMQIVVRVRSRIRLK, the growth estimate was less than -0.25.
For WEYEASESANGWSLCGRLQI, the growth estimate was less than -0.25.
Work on WFDFMVSSRWTPRGIP yielded a growth estimate of less than -0.25.
With WFEE the growth estimate was -0.231.
WFF gave a growth estimate of less than -0.25.
WFLWGGGRRLGKG was tested, and the growth estimate was less than -0.25.
WFVQNPQLSRLRYGDTST gave a growth estimate of less than -0.25.
WGALGVWKAQGLSKATCTER gave a growth estimate of less than -0.25.
WGARQGDLRDI was tested, and the growth estimate was less than -0.25.
For WGARTSARLHLAAPPQPDNV, the growth estimate was less than -0.25.
For WGERQVRVCTGCSYFKLP, the growth estimate was less than -0.25.
WGG gave a growth estimate of less than -0.25.
WGGPSSAWASTSLRTPVCWC was tested, and the growth estimate was less than -0.25.
WGGSLGLVTGKLRTITTQRF gave a growth estimate of less than -0.25.
WGGSLVTSLTSFVHLGSSAY gave a growth estimate of less than -0.25.
For WGGVTLGWVRVSRRTE, the growth estimate was less than -0.25.
WGGYPPILCTSIGWCLAFFA showed a growth estimate of less than -0.25.
WGKIRLWNNLLTEYDLMRGR was tested, and the growth estimate was less than -0.25.
With WGLSFTPPVRS the growth estimate was less than -0.25.
WGLTRSFRK was tested, and the growth estimate was less than -0.25.
WGPTVVW showed a growth estimate of less than -0.25.
With WGQLDA the growth estimate was less than -0.25.
Substance WGREPLV has a growth estimate of less than -0.25.
WGSGETAPAACHRAKHMSHL was tested, and the growth estimate was less than -0.25.
In the case of WGSILDAVRDRFSRFTGTGG, the growth estimate was less than -0.25.
In the case of WGSTGHRSFREVENRNGITA, the growth estimate was less than -0.25.
Work on WGVLAGGICGSMAKPTFGGA yielded a growth estimate of less than -0.25.
WGVRLCMPNKLLAFPVRGQ gave a growth estimate of -0.243.
WGVTLEPRIDSEGQGMYMPG showed a growth estimate of -0.173.
Work on WGWSEVSSGYCTQQRLSWIA yielded a growth estimate of less than -0.25.
With WGWTMDLL the growth estimate was less than -0.25.
WGYCVAPKL showed a growth estimate of less than -0.25.
WGYQTVKSDCSHRVSENVDI gave a growth estimate of less than -0.25.
Work on WGYRLCLRAYSGLSLSALFL yielded a growth estimate of less than -0.25.
Work on WHARTAYIRVVSCPNGARRP yielded a growth estimate of less than -0.25.
With WHCLRISGPIGIHNP the growth estimate was less than -0.25.
For WHDCRIGGLCVGLVGYN, the growth estimate was -0.246.
WHFLVRPKCYN was tested, and the growth estimate was less than -0.25.
WHGLPHRVQAHTDCSNSF gave a growth estimate of less than -0.25.
Substance WHGQCGGVQLLARSILRPTS has a growth estimate of less than -0.25.
For WHIPINFEGRRSYMKGGAQD, the growth estimate was less than -0.25.
For WHLGFGTPIPRLSWRGYRLF, the growth estimate was less than -0.25.
In the case of WHM, the growth estimate was less than -0.25.
WHNNRRPEWEYEIAASSMSD was tested, and the growth estimate was less than -0.25.
Work on WHPLYDRQKEGPVI yielded a growth estimate of -0.189.
Substance WHWYSNIFYTSNWGCD has a growth estimate of less than -0.25.
In the case of WIEPVT, the growth estimate was less than -0.25.
Work on WIHPVPELVRIGGVSQRDSR yielded a growth estimate of less than -0.25.
Substance WIMDQDT has a growth estimate of less than -0.25.
Work on WIRSFLLLESAEQATVSNR yielded a growth estimate of less than -0.25.
For WIRVTNPAGIYQLKPRSVLL, the growth estimate was less than -0.25.
With WISQVKTSEGSCGSLNMSYR the growth estimate was less than -0.25.
WISSEGRVLDADWRARHRDG was tested, and the growth estimate was less than -0.25.
WIWLNN showed a growth estimate of less than -0.25.
Work on WKFCSLTSRSC yielded a growth estimate of less than -0.25.
Work on WKGRRARLHWAYSLADETVQ yielded a growth estimate of less than -0.25.
Work on WKLSVLCSVSITSL yielded a growth estimate of less than -0.25.
WKLTFRQSPARPLHGSIANG was tested, and the growth estimate was less than -0.25.
In the case of WKRNLIWECRLECGLGDRDE, the growth estimate was less than -0.25.
In the case of WKRYNTTRGITCIQFLLALD, the growth estimate was less than -0.25.
WKSN gave a growth estimate of less than -0.25.
WKTV gave a growth estimate of less than -0.25.
WKTVH was tested, and the growth estimate was less than -0.25.
WKYSASTSMLVHTGPSDRMV gave a growth estimate of less than -0.25.
For WLARLTEPGTEYARSNTPCL, the growth estimate was -0.0581.
WLASDEI gave a growth estimate of less than -0.25.
WLAVESRSRVQLDKVYELWG showed a growth estimate of less than -0.25.
Work on WLDAGPSTPRTGTVKVIIPQ yielded a growth estimate of less than -0.25.
With WLFEFLIRHL the growth estimate was less than -0.25.
